The list shows a part of the results.
Target: OsWRKY34 (Oryza sativa, UniProt Q0JBA9 1-250)
Test: protein-binding microarray (RPBM); PBS, 2% BSA, 51.3 ng/ul salmon testes DNA, 50 uM zinc acetate, 200 nM TF, 25 C, 1 h; high values mean tight binding
Settings: protein: recombinant; tags: N-terminal polyhistidine and DsRed monomer fusion (pET32a); label: CyDye5-dUTP incorporated in the synthesized complementary strand; 3' TTTTT single-stranded linker to array surface; dsDNA, one strand shown
Method in brief: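 Ni–NTA purification followed expression in E. coli BL21-CodonPlus of transcription factors fused N-terminally to a polyhistidine tag and DsRed. At 200 nM in PBS with 2% BSA, salmon testes DNA and 50 µM zinc acetate, the protein was incubated for 1 h at 25 °C with a custom Agilent array that had been primer-extended with Cy5-dUTP and blocked with 2% BSA. After washing, the array was read on an Axon 4000B scanner. The binding signal is per-feature fluorescence intensity in arbitrary units.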

The chains behind the UniProt entries cited, without tags or fusion partners.
UniProt Q0JBA9, entry or part of it: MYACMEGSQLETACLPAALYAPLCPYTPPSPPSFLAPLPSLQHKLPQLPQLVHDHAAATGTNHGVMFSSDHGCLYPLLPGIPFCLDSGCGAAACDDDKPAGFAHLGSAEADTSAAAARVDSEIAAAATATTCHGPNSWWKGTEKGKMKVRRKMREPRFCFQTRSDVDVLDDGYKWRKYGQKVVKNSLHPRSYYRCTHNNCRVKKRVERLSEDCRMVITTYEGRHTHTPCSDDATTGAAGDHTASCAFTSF

Sequence	binding signal
ATCAGTCGTCTAGTTCGTCGGCTGTCATTTTTAAATTCCTCGGAGTCACCTAGTGCAG	8400 fluorescence intensity (a.u.)
ATGGGGTGTTTTTTTTTTCGCTATATTCTCTTAGAACTGTCGGAGTCACCTAGTGCAG	18000 fluorescence intensity (a.u.)
ATCATTTCTTTGATTTTGGTCTTGCTTGAGCTTTTGTTTCCGGAGTCACCTAGTGCAG	10100 fluorescence intensity (a.u.)
GGCCTCAACCAGGCCAGGCCCATTTTAACCGCGTCTCTCCCGGAGTCACCTAGTGCAG	11500 fluorescence intensity (a.u.)
CCCAGCCCAACAAGCATCCCACTAGATCATCACGGCCTCTCGGAGTCACCTAGTGCAG	10700 fluorescence intensity (a.u.)
TCGCCATCTTTGACCGCGCAAACGCCGTCGTTCGCGAACTCGGAGTCACCTAGTGCAG	9320 fluorescence intensity (a.u.)
TTTTTCATGTTTTTGTTCCTTTTTGAGTGCTTTTATTTCTCGGAGTCACCTAGTGCAG	12900 fluorescence intensity (a.u.)
GCGGGTTCCCATAGGCGGTGGTGTCACTTTCTCCATGTTTCGGAGTCACCTAGTGCAG	8040 fluorescence intensity (a.u.)
AATTCTGTTAGCTTCTCTGAACTTTGGTCTTTATTTTGAACGGAGTCACCTAGTGCAG	10200 fluorescence intensity (a.u.)
AAACCGTCTTAGGACCTTATGTGCACTGGATTTCTAAGTTCGGAGTCACCTAGTGCAG	8080 fluorescence intensity (a.u.)
TGAGTGTTCTCTGCCTGCCATTTTGATTATTCATTTTATGCGGAGTCACCTAGTGCAG	8900 fluorescence intensity (a.u.)
GTGACACTGACATGTGGGTTCCACGGGATTTATTATTTTTCGGAGTCACCTAGTGCAG	8370 fluorescence intensity (a.u.)
CGTCATTACATGGGCCTGGCTGCTCTGGATGTCTTCTTTTCGGAGTCACCTAGTGCAG	8150 fluorescence intensity (a.u.)
GGGTTTTCCAGCTTCTGGCTTCTAGTTCATTTTCTGGATTCGGAGTCACCTAGTGCAG	8440 fluorescence intensity (a.u.)
GACTTACTTTATTATCCAAAGTACTTTACGCACAACTTTTCGGAGTCACCTAGTGCAG	8130 fluorescence intensity (a.u.)
CGGCTTGATGCGCGCTCCCTCCGATTTTTCACCTTTGTCCCGGAGTCACCTAGTGCAG	12400 fluorescence intensity (a.u.)
ACCTTAACTCTCTCCTTGCTTCCCAAACATGGTTAAATTACGGAGTCACCTAGTGCAG	10900 fluorescence intensity (a.u.)
TTTCCCTTCTGTTTTTTTTCGGTTTTTTAATGTATGAATACGGAGTCACCTAGTGCAG	8820 fluorescence intensity (a.u.)
ATTCTTCCATGCTTCCGGCGGGACCGCGTCGCGCGCACGCCGGAGTCACCTAGTGCAG	8630 fluorescence intensity (a.u.)
GACTCTGGACTCTTGCGATTCGTCTCCAGCCGCGGCCATGCGGAGTCACCTAGTGCAG	8160 fluorescence intensity (a.u.)
TGCATACAACTGACTTATAATCTGCTATTGTACTCGCTGCCGGAGTCACCTAGTGCAG	8300 fluorescence intensity (a.u.)
GTTGTCGCTCATTTTCCTCCCGTACGTTCCAGCTAGCTCACGGAGTCACCTAGTGCAG	9010 fluorescence intensity (a.u.)
CTCGCGCCCCATCGATCAACCTCTCTCCCGCCAACGCCCACGGAGTCACCTAGTGCAG	12600 fluorescence intensity (a.u.)
CGATGCTCTCCAGCTCTCCCTTGTTCGTGATGGCCGCTCCCGGAGTCACCTAGTGCAG	8130 fluorescence intensity (a.u.)
TTCCTGTGAGATGAACACGTTTTTGTTTTGTTTTGTTTTTCGGAGTCACCTAGTGCAG	10500 fluorescence intensity (a.u.)
GGCTGGTCTGGTGCATCGCCCACCGATTTCATCGTGCCGTCGGAGTCACCTAGTGCAG	8920 fluorescence intensity (a.u.)
TCGCAGCAGCTGTTTTACCGGCTAGTTTTTTGCACACATCCGGAGTCACCTAGTGCAG	8600 fluorescence intensity (a.u.)

Retrieved one by one from the entries so far, two records:
Sequence	binding signal
AATTCTGTTAGCTTCTCTGAACTTTGGTCTTTATTTTGAACGGAGTCACCTAGTGCAG	10200 fluorescence intensity (a.u.)
TTTCCCTTCTGTTTTTTTTCGGTTTTTTAATGTATGAATACGGAGTCACCTAGTGCAG	8820 fluorescence intensity (a.u.)

Carrying on:

Sequence	binding signal
AGCCTAGTTTCTTCCTTTGTCCACGTGTAATATTTGAAGTCGGAGTCACCTAGTGCAG	9940 fluorescence intensity (a.u.)
TATATATATATATATATATATATAAAATAAGAAAATCTGACGGAGTCACCTAGTGCAG	9950 fluorescence intensity (a.u.)
TCCCACAGTTTCACAATATAAATTATTCTAGTATTTCCCACGGAGTCACCTAGTGCAG	8250 fluorescence intensity (a.u.)
CAAACAGTATCCGGTTTGTATATTAGCACTTCACCTGCTTCGGAGTCACCTAGTGCAG	8060 fluorescence intensity (a.u.)
TAGTCTTTACAAGTTCTTTTGGGCCTATAACTGTAGTTCCCGGAGTCACCTAGTGCAG	8910 fluorescence intensity (a.u.)
GCACGTGGTTTTAAGGTGGGTATTTTGGTGCACTTTTTTCCGGAGTCACCTAGTGCAG	11000 fluorescence intensity (a.u.)
TGCGTTTTTTTCGCGTAGCTGTTCACATGGTTACAACTTACGGAGTCACCTAGTGCAG	9640 fluorescence intensity (a.u.)
TGGGGCGGCTGGTAGTTCCAGGCCGGGAGACTAATTCTGACGGAGTCACCTAGTGCAG	8760 fluorescence intensity (a.u.)
GTGTGTTATTTTCTTCCACTCTTTAGTTTTCACTTTTTGACGGAGTCACCTAGTGCAG	9240 fluorescence intensity (a.u.)
CTCTCGCCCTTCGCGCTGACCTCCTCACAGCTGCTCTCGCCGGAGTCACCTAGTGCAG	8440 fluorescence intensity (a.u.)
GGAGGAGGAGGAGGGAGAGGGTGGTGTAGTGGGAGCGGCCCGGAGTCACCTAGTGCAG	8170 fluorescence intensity (a.u.)
GCCGCTCTCACTTCAATCCTAACCAAAGTGCACACAAGATCGGAGTCACCTAGTGCAG	9450 fluorescence intensity (a.u.)
TCGGTCTCTCACTCTCACGGTCTCACCTCCTCCTCCTCCTCGGAGTCACCTAGTGCAG	13400 fluorescence intensity (a.u.)
TTCTTGCTGATGCCTGTGTTTTGGGATGAGATTTTTTTTTCGGAGTCACCTAGTGCAG	10000 fluorescence intensity (a.u.)
GCAAACACTCTCTCTATAGATATGTCACTAGCACCATATGCGGAGTCACCTAGTGCAG	8310 fluorescence intensity (a.u.)
TTCGCATCGGCGTTGCTTCCAACGAGAGGGAGGGAGGGAGCGGAGTCACCTAGTGCAG	9600 fluorescence intensity (a.u.)
AGAATATGTCGTTGGCGACCTGCCGGTCCAGCATCACCTCCGGAGTCACCTAGTGCAG	8820 fluorescence intensity (a.u.)
TTGCCCGTAAGTATCTTTCTCATCTTCTTTTTTTCCTTTTCGGAGTCACCTAGTGCAG	14500 fluorescence intensity (a.u.)
AGCACCTTTTTCATTGTAAGAGCATCCCAGCAGCTTATCCCGGAGTCACCTAGTGCAG	8170 fluorescence intensity (a.u.)
AAGTTCATGGATGTCCTGTTGCCCATCCGTATTTCCTTTCCGGAGTCACCTAGTGCAG	9720 fluorescence intensity (a.u.)
AGTGTTGACTTTTAAATTAATAAACTGTTTTGGTTTATTACGGAGTCACCTAGTGCAG	10500 fluorescence intensity (a.u.)
ACTGTAGCCCATTTTTGATATGGCCAAGGCCCACATAGCACGGAGTCACCTAGTGCAG	8260 fluorescence intensity (a.u.)
TATTCCCTTCTCATTTCTCCATGCTACTCTTTGTTTTCATCGGAGTCACCTAGTGCAG	9240 fluorescence intensity (a.u.)
GCATTATATTTTTGACCTGTTCATTCCATTATGTTAGAATCGGAGTCACCTAGTGCAG	8790 fluorescence intensity (a.u.)
TCTCTTATACTGATTTTTGGGTCCAATCCCTTACCGTTGACGGAGTCACCTAGTGCAG	8150 fluorescence intensity (a.u.)
TCTCCATGCTATTCATTCCGTTTCTTAATATATGTCAATTCGGAGTCACCTAGTGCAG	10600 fluorescence intensity (a.u.)
TTCCTTGTTCTAGTGTTTCTATTTTTTATTTTTGGCTCAACGGAGTCACCTAGTGCAG	10200 fluorescence intensity (a.u.)
